The test system of this assay is L1210 leukemia ip in BDF1 mice, survival T/C. Description: NCI In Vivo Anticancer Drug Screen. Data for tumor model L1210 Leukemia (intraperitoneal) in B6D2F1 (BDF1) mice. Particulars: higher T/C = longer survival.
The mark [1] stands for this setting: T/C endpoint: mean survival time, dose: 400.0 mg/kg/injection, schedule: Q01DX009 (ip), vehicle: saline.
[2] abbreviates: T/C endpoint: mean survival time, dose: 100.0 mg/kg/injection, schedule: Q04DX003 (ip), vehicle: Klucel (hydroxypropylcellulose) (HPC).
Where [3] appears, read: T/C endpoint: mean survival time, dose: 200.0 mg/kg/injection, schedule: Q04DX003 (ip), vehicle: Klucel (hydroxypropylcellulose) (HPC).
Setting [4] is: T/C endpoint: mean survival time, dose: 400.0 mg/kg/injection, schedule: Q04DX003 (ip), vehicle: Klucel (hydroxypropylcellulose) (HPC).
[5] abbreviates: T/C endpoint: mean survival time, dose: 400.0 mg/kg/injection, schedule: Q04DX003 (ip), vehicle: saline.
[6] abbreviates: T/C endpoint: mean survival time, dose: 400.0 mg/kg/injection, schedule: Q04DX003 (ip), vehicle: saline with Tween-80.
Where [7] appears, read: T/C endpoint: mean survival time, dose: 200.0 mg/kg/injection, schedule: Q01DX009 (ip), vehicle: saline with Tween-80.
[8] abbreviates: T/C endpoint: mean survival time, dose: 200.0 mg/kg/injection, schedule: Q04DX003 (ip), vehicle: saline.

The list shows only some results of the screen, not a fair sample: it is rich in T/C values a quarter to a half above the control, in often repeated tests (any T/C) and in doses without a T/C. Other doses and runs of a compound stand elsewhere. T/C is the treated group as % of the vehicle group. Some doses have a count of surviving animals in place of a T/C: the source holds a T/C of zero for them, seemingly a mark for toxic or unscored doses. Some survivor counts are full or nearly so, which does not show that the dose was tolerated: survival well below the control is almost never listed, so the zero probably covers shortened survival too. Survivors were counted at the toxicity check, usually on the fifth day, unless a day is given; later deaths do not show. Schedules are NCI's codes, taken here to give the interval after Q, in days (D) or hours (H), and the number of doses after X. Some entries were tested several times; their values stand side by side, smallest first. Where survival is the endpoint, the PubChem record calls one and a half times the control and up active, and a quarter to a half above the control has no call in these data; cut-offs in other NCI protocols can differ.

For the compound `C=CCNC(=O)NCC=C`, the T/C runs as follows: (T/C endpoint: mean survival time, dose: 25.0 mg/kg/injection, schedule: Q01DX009 (ip), vehicle: saline) 111, 116, 117, 132 % of control; (T/C endpoint: mean survival time, dose: 25.0 mg/kg/injection, schedule: Q01DX009 (oral), vehicle: saline) 130 % of control; (T/C endpoint: mean survival time, dose: 50.0 mg/kg/injection, schedule: Q01DX009 (ip), vehicle: saline) 111, 114, 125, 126, 143 % of control; (T/C endpoint: mean survival time, dose: 50.0 mg/kg/injection, schedule: Q01DX009 (oral), vehicle: saline) 141 % of control; (T/C endpoint: mean survival time, dose: 89.0 mg/kg/injection, schedule: Q01DX009 (ip), vehicle: saline) 139 % of control; (T/C endpoint: mean survival time, dose: 100.0 mg/kg/injection, schedule: Q01DX009 (ip), vehicle: saline) 117, 121, 124, 152 % of control. Besides, the T/C runs as follows: (T/C endpoint: mean survival time, dose: 133.0 mg/kg/injection, schedule: Q01DX009 (ip), vehicle: saline) 143 % of control; (T/C endpoint: mean survival time, dose: 200.0 mg/kg/injection, schedule: Q01DX009 (ip), vehicle: saline) 127, 141, 156, 157, 159 % of control; (T/C endpoint: median survival time, dose: 25.0 mg/kg/injection, schedule: Q01DX009 (ip), vehicle: saline) 127 % of control; (T/C endpoint: median survival time, dose: 25.0 mg/kg/injection, schedule: Q01DX009 (sc), vehicle: saline) 133 % of control; (T/C endpoint: median survival time, dose: 50.0 mg/kg/injection, schedule: Q01DX009 (ip), vehicle: saline) 138 % of control; (T/C endpoint: median survival time, dose: 50.0 mg/kg/injection, schedule: Q01DX009 (sc), vehicle: saline) 133 % of control. In addition, the T/C runs as follows: (T/C endpoint: median survival time, dose: 100.0 mg/kg/injection, schedule: Q01DX009 (sc), vehicle: saline) 133 % of control; (T/C endpoint: median survival time, dose: 200.0 mg/kg/injection, schedule: Q01DX009 (ip), vehicle: saline) 144 % of control; (T/C endpoint: median survival time, dose: 200.0 mg/kg/injection, schedule: Q01DX009 (sc), vehicle: saline) 144 % of control. Also, the survivor count by setting is: (T/C endpoint: mean survival time, dose: 200.0 mg/kg/injection, schedule: Q01DX009 (oral), vehicle: saline) 6 of 6; (T/C endpoint: mean survival time, dose: 400.0 mg/kg/injection, schedule: Q01DX001 (ip), vehicle: saline) 2 of 6; under setting [1], 0 of 6 and 3 of 6; (T/C endpoint: mean survival time, dose: 400.0 mg/kg/injection, schedule: Q01DX009 (oral), vehicle: saline) 4 of 6 and 6 of 6; (T/C endpoint: median survival time, dose: 400.0 mg/kg/injection, schedule: Q01DX001 (ip), vehicle: saline) 1 of 8; (T/C endpoint: median survival time, dose: 400.0 mg/kg/injection, schedule: Q01DX001 (sc), vehicle: saline) 5 of 8. The survivor count is, setting by setting: (T/C endpoint: median survival time, dose: 400.0 mg/kg/injection, schedule: Q01DX009 (ip), vehicle: saline) 2 of 6, 3 of 6, 4 of 8; (T/C endpoint: median survival time, dose: 400.0 mg/kg/injection, schedule: Q01DX009 (sc), vehicle: saline) 2 of 8; (T/C endpoint: median survival time, dose: 400.0 mg/kg/injection, schedule: Q04DX003 (ip), vehicle: saline) 4 of 8; (T/C endpoint: median survival time, dose: 400.0 mg/kg/injection, schedule: Q04DX003 (sc), vehicle: saline) 3 of 8; (T/C endpoint: median survival time, dose: 800.0 mg/kg/injection, schedule: Q01DX001 (ip), vehicle: saline) 0 of 8; (T/C endpoint: median survival time, dose: 800.0 mg/kg/injection, schedule: Q01DX001 (sc), vehicle: saline) 0 of 8. In addition, the survivor count by setting is: (T/C endpoint: median survival time, dose: 800.0 mg/kg/injection, schedule: Q04DX003 (ip), vehicle: saline) 0 of 8; (T/C endpoint: median survival time, dose: 800.0 mg/kg/injection, schedule: Q04DX003 (sc), vehicle: saline) 1 of 8.

As for `O=C(N/N=C/c1ccccn1)C1CCCO1` (stereo unspecified), the survivor count under setting [1] is recorded as 1 of 6.

As for `NC(CC(=O)O)C(=O)O.[Cu+2]` (stereo unspecified), the survivor count is 6 of 6 (T/C endpoint: mean survival time, dose: 40.0 mg/kg/injection, schedule: Q04DX003 (ip), vehicle: Klucel (hydroxypropylcellulose) (HPC)); 6 of 6 (T/C endpoint: mean survival time, dose: 80.0 mg/kg/injection, schedule: Q04DX003 (ip), vehicle: Klucel (hydroxypropylcellulose) (HPC)); 0 of 6 under setting [2]; 0 of 6 under setting [3]; 6 of 6 under setting [4].

Consider `COc1ccc(C(=O)NN2C(N)=NC(N)=NC2(C)C)cc1`, for which the survivor count under setting [5] was 0 of 6.

On to `CCC[CH2][Sn]([c]1ccccc1)([c]1ccccc1)[c]1ccccc1`, for which the survivor count under setting [6] is 2 of 6.

For the compound `NC(=Nc1ccc(N)cc1)c1ccc(C(N)=Nc2ccc(N)cc2)cc1`, the survivor count is, setting by setting: (T/C endpoint: mean survival time, dose: 147.0 mg/kg/injection, schedule: Q01DX015 (ip), vehicle: water) 0 of 6; (T/C endpoint: mean survival time, dose: 294.0 mg/kg/injection, schedule: Q01DX015 (ip), vehicle: water) 0 of 6.

`C[N+](C)(C)C1CC2CC1C2` (stereo unspecified): the survivor count was 2 of 6 (T/C endpoint: mean survival time, dose: 150.0 mg/kg/injection, schedule: Q01DX001 (ip), vehicle: saline) and 0 of 6 (T/C endpoint: mean survival time, dose: 300.0 mg/kg/injection, schedule: Q01DX001 (ip), vehicle: saline).

For the compound `C=CCCCCCCCCC(=O)O`, the survivor count (T/C endpoint: mean survival time, dose: 400.0 mg/kg/injection, schedule: Q04DX002 (ip), vehicle: other) was 1 of 3.

As for `CCN(C(=O)c1ccc([N+](=O)[O-])cc1)C(c1ccccc1)P(=O)(c1ccccc1)c1ccccc1` (stereo unspecified), the survivor count (T/C endpoint: mean survival time, dose: 50.0 mg/kg/injection, schedule: Q01DX009 (ip), vehicle: saline with Tween-80) was 3 of 3 and 6 of 6; the survivor count (T/C endpoint: mean survival time, dose: 100.0 mg/kg/injection, schedule: Q01DX009 (ip), vehicle: saline with Tween-80) was 3 of 3 and 6 of 6; the survivor count (T/C endpoint: mean survival time, dose: 100.0 mg/kg/injection, schedule: Q04DX002 (ip), vehicle: saline with Tween-80) is listed as 6 of 6; the survivor count under setting [7] was 3 of 3; the survivor count (T/C endpoint: mean survival time, dose: 200.0 mg/kg/injection, schedule: Q04DX002 (ip), vehicle: saline with Tween-80) was 3 of 3 and 6 of 6; the survivor count (T/C endpoint: mean survival time, dose: 400.0 mg/kg/injection, schedule: Q04DX002 (ip), vehicle: saline with Tween-80) was 3 of 3.

Turning to `CNC/C=C/CNC`, the survivor count by setting is: under setting [8], 5 of 6; under setting [5], 0 of 6.

In the case of `Cn1c(=O)c2[nH]cnc2n(C)c1=O` (tested in a mixture with another compound), the survivor count under setting [6] is 4 of 6.

As to `CCN(CC)CCOC(=O)Nc1ccccc1`, the survivor count under setting [8] was 0 of 6.

`O=C(c1ccc(-c2ccccc2)cc1)C(Br)CCBr` (stereo unspecified): the survivor count under setting [6] is 2 of 6.

Take `CC1CCC2CON(C(C)(C)C)C2C1` (stereo unspecified): the survivor count (T/C endpoint: mean survival time, dose: 100.0 mg/kg/injection, schedule: Q04DX003 (ip), vehicle: saline with Tween-80) is on record as 0 of 6; the survivor count under setting [7] is 1 of 6; the survivor count under setting [6] is given as 0 of 6.

Regarding `Cc1ccc(N2C=Nc3ccc(C)cc3C2)cc1`, the survivor count is listed as 5 of 6 (T/C endpoint: mean survival time, dose: 400.0 mg/kg/injection, schedule: Q01DX009 (ip), vehicle: Klucel (hydroxypropylcellulose) (HPC)) and 0 of 6 (T/C endpoint: mean survival time, dose: 400.0 mg/kg/injection, schedule: Q04DX003 (ip), vehicle: other).

As to `CC(=O)OCCC(C)Nc1ccnc2cc(Cl)ccc12` (stereo unspecified), the survivor count (T/C endpoint: mean survival time, dose: 80.0 mg/kg/injection, schedule: Q04DX003 (ip), vehicle: saline with Tween-80) is reported as 5 of 6.

Turning to `Nc1nnc(-c2ccccc2)s1`, the survivor count is 6 of 6 under setting [2], 6 of 6 under setting [3] and 0 of 6 under setting [4].

On to `CCOC(=O)C1C2C=CC=CC(=O)C21` (stereo unspecified), for which the survivor count (T/C endpoint: mean survival time, dose: 400.0 mg/kg/injection, schedule: Q01DX009 (ip), vehicle: other) was 3 of 6.

With `Cc1nccc2c(C)c3c(cc12)c1ccccc1n3CCC1CO1` (stereo unspecified), the T/C (T/C endpoint: mean survival time, dose: 300.0 mg/kg/injection, schedule: Q04DX003 (ip), vehicle: water) is 128 % of control.

`Nc1ccc(OCCNS(=O)(=O)c2ccc(S(=O)(=O)F)cc2)c(Cl)c1`: the survivor count is 1 of 6 under setting [3] and 3 of 6 under setting [4].

The values above are taken from PubChem BioAssay AID248 (DTP/NCI, 2004).
